Measured values: PubChem BioAssay AID588499 (NMMLSC, 2011)
In all, about 360,000 compounds went through this assay and about 610 (0.17%) were called active. This list was built around the results that the source calls inconclusive (neither active nor inactive); the mix of calls is not that of the screen. Cut-off read from the data, not from the text of the source: active = inhibition above about 30%; inconclusive = no clear call, values can overlap the other calls; inactive = below that.

These molecules were tested on Botulinum neurotoxin type A light chain protease (Clostridium botulinum A str. ATCC 3502) (assay: blockers of BoNT/A LC substrate cleavage – biochemical, flow cytometry, MLPCN library, primary screen (AID 588499; note: plate controls were buffer without enzyme for full effect and enzyme alone for no effect)). Settings: multiplex microsphere protease substrate cleavage, at 10 µM, active compounds read high.

SMILES | inhibition
O=C(NCCC1=CCCCC1)c1ccc(=O)oc1 | inconclusive: 0.6%
CCOC(=O)C1CCN(Cc2cnc(NC(=O)OC)s2)CC1 | inconclusive: 1%
O=C1CCC(C(=O)Nc2cccc(C(F)(F)F)c2)N1 (configuration not stated) | inconclusive: -0.8%
Cc1ccccc1C(=O)N1CCC(C(=O)NN2C(=O)NC3(CCC(C)CC3)C2=O)CC1 (configuration not stated) | inactive: -0.4%
COc1ccc(Nc2nc(NN)nc(Nc3ccc(OC)cc3)n2)cc1 | inactive: -2.1%
O=c1cc(C(F)(F)F)[nH]c2ccccc12 | inconclusive: 5.9%
CCC(C)Nc1nc2c(c(=O)n(C)c(=O)n2C)n1Cc1ccc(F)cc1 (configuration not stated) | inconclusive: -1.1%
COc1ccccc1-c1noc2c1C(=O)N(Cc1cn(Cc3ccccc3)nn1)CC2 | inactive: -0.1%
O=[N+]([O-])c1ccccc1/C=C/CN1CCSCC1 | inactive: 3.3%
CC(=O)c1csc(COc2ccc(Cl)cc2)n1 | inconclusive: -0.7%
CN(C)c1ccc(/C=C/C=C2/SC(=S)N(c3ccccc3)C2=O)cc1 | inconclusive: 57.3%
COc1ccc(C(=O)C[n+]2cccc(Br)c2)cc1 | inconclusive: 6.3%
NC(=O)CCn1cnc2ccccc21 | inconclusive: -14.2%
Cc1ccc(OCC(=O)N2CCN(c3nnc(-c4ccc(C)cc4)c4ccccc34)CC2)cc1 | inactive: 2%
O=C1CSC(=S)N1/N=C/C=C/c1ccccc1 | active: 42.8%
N#Cc1ccc(C(=O)CSc2nnc(-c3ccc(C(F)(F)F)cn3)s2)cc1 | inconclusive: -16.7%
COc1ccc(NS(=O)(=O)c2ccc(S(=O)(=O)N3CCCC3)cc2)cc1Cl | inconclusive: 2.7%
COc1cc2oc3ccc(C#Cc4ccccn4)cc3c(=O)c2cc1OC | inactive: 0.4%
COCc1nnc(NC(=O)CCSc2ccccc2)s1 | inconclusive: 2.5%
Cc1ccc(S(=O)(=O)N2CC(O)C[C@H]2C(=O)OCC(=O)N2CCN(c3ccc(F)cc3)CC2)cc1C (some centres not stated) | active: 98.9%
O=C(c1ccccc1)[C@@H]1[C@@H](C(=O)c2ccc(F)cc2)[C@@]2(C(=O)Nc3ccccc32)[C@H]2c3ccccc3C=CN12 | active: 39.2%
Cc1ccc(S(=O)(=O)N2CCCC2C(=O)N(C)Cc2cccs2)cc1 (configuration not stated) | inconclusive: 1.5%
O=C(C[n+]1cc(Br)cc2ccccc21)c1ccccc1 | active: 100%

SMILES | inhibition
CCC1(CC)Cc2ccccc2C(=O)N1 | inconclusive: -1.3%
CC(OC(=O)Cn1cnc2c1c(=O)n(C)c(=O)n2C)C(=O)NC1(C#N)CCCCC1 (configuration not stated) | inactive: 1.6%
CCOP(=O)(OCC)c1nc(Cc2ccccc2)oc1NCc1ccccc1 | inconclusive: -35.7%
CCc1ccc(N2C(=O)CC(N3CCN(c4ccccn4)CC3)C2=O)cc1 (configuration not stated) | inconclusive: -2.8%
COc1ccc(-c2nc3ccccc3c(=O)n2-c2cccnc2)cc1 | inconclusive: -1.3%
Cc1ccc(Cl)c(OCC(=O)NCc2ccco2)c1 | inconclusive: -3.2%
COc1ccccc1NC(=O)NNC(=O)CCc1ccccc1 | inactive: 1.7%
CCCn1nnnc1NCc1ccc(CC)cc1 | inconclusive: -1.6%
CCC1(C)Cc2c(sc3c2c(=O)n(C)c2nnc(SCc4ccccc4)n32)CO1 (configuration not stated) | inconclusive: 10.3%
Cc1c(Cc2ccccc2)c(=O)oc2cc(OC(C)C(=O)NCC3CCC(C(=O)O)CC3)c(Cl)cc12 (configuration not stated) | inactive: -0.7%
COc1ccc(C2C3=C(CC(C)(C)CC3=O)Oc3ncn(CCO)c(=N)c32)cc1OC (configuration not stated) | inconclusive: 26.1%
COc1ccc(C(=O)Nc2c(Cl)cc(Cl)cc2C(=O)NCCN2CCOCC2)cc1 | inconclusive: 0.6%
Oc1ccc(-c2nc3ccccc3nc2-c2ccccc2)cc1 | inconclusive: 5.5%
CCc1nc(N2CCN(C(C)=O)CC2)c(C#N)c2c1COC(C)(C)C2 | inactive: 0.2%
Cc1ccc(-c2nc(C#N)c(NCCN3CCCCC3)o2)cc1 | inconclusive: -9.3%
COc1nc(N2CCCCCC2)nc(N2CCCCCC2)n1 | inconclusive: 2.6%
NS(=O)(=O)c1ccc(CNC(=O)NC23CC4CC(CC(C4)C2)C3)cc1 | inconclusive: 15%
COc1ccc(S(=O)(=O)n2nc(-n3c(C)ccc3C)c3c(F)cccc32)cc1OC | inconclusive: -7.3%
Clc1ccc(CNCCCSc2ncccn2)cc1Cl | inactive: 0.6%
Cc1ccc(C(=O)NC(C)c2ccccc2)o1 (configuration not stated) | inactive: 1.5%
NS(=O)(=O)c1ccc(CCNC(=O)COC(=O)CCc2c[nH]c3ccccc23)cc1 | inactive: -0.7%
O=C1CCN(Cc2cccnc2)CCN1[C@H](CO)Cc1ccccc1 | inactive: 0%
COc1ccc(OC)c(C(=O)Nc2c(O)ccc3ccccc23)c1 | inconclusive: 24.8%

SMILES | inhibition
O=S(=O)(NCCNS(=O)(=O)c1ccccc1)c1ccccc1 | inconclusive: -2.2%
COc1ccc(S(=O)(=O)N(C)C)cc1NC(=O)CCNC(=O)c1ccco1 | inactive: 0.5%
COc1cccc(OCCCn2cc(/C=C3/C(=N)N4C=C(C)SC4=NC3=O)c3ccccc32)c1 | active: 49.6%
COC(=O)c1nn(-c2ccc(Cl)cc2)c(=O)cc1Sc1ccccn1 | inconclusive: -9.2%
Cc1ccc(C(=O)Nc2ncc([N+](=O)[O-])s2)cc1 | inconclusive: -8%
CCC(C)NC(=O)CCCCCn1c(=O)[nH]c2cc(OC)c(OC)cc2c1=O (configuration not stated) | inactive: 1.6%
Fc1ccc(-c2nnn(Cc3nc4ccccc4s3)n2)cc1 | inconclusive: 3.7%
CCn1nc(-c2ccccc2)c2nc3ccccc3nc21 | active: 66.9%
CCCN(CC1CC1)C(=O)COC(=O)c1oc2ccc(OCC)cc2c1C | inconclusive: -2%
COC(=O)c1sc(C(F)(F)F)c(-c2ccccc2)c1S(=O)(=O)N1CCCC1 | inconclusive: -9.3%
O=C(CSc1ccccc1)Nc1cc(S(=O)(=O)N2CCOCC2)ccc1N1CCOCC1 | inactive: 0.7%
CCOC(=O)NNC1CC(=O)N(c2ccc(OC)cc2)C1=O (configuration not stated) | inconclusive: 4.1%
CSc1n[nH]c(=O)n1C1CCCCC1 | inconclusive: -11%
CCc1sc(NC(=O)CN2CCOCC2)nc1-c1ccccc1 | inconclusive: 0.2%
CCn1c(=O)cc(OCC(=O)NCc2cccnc2)c2ccccc21 | inconclusive: -2.6%
CCOC(=O)N1CCC(Nc2nc(OC)nc(OC)n2)CC1 | inconclusive: -0.8%
Cc1ccccc1NC(=O)C(C)OC(=O)CCC(=O)N(CC(C)C)c1c(N)n(CC(C)C)c(=O)[nH]c1=O (configuration not stated) | inconclusive: 1.1%
COc1ccccc1-c1csc(C(C)(O)c2ccccc2)n1 (configuration not stated) | inactive: -0.2%
COc1ccc(-c2cc(C(=O)NCCCN3CCOCC3)c3ccccc3n2)cc1OC | inactive: 3.7%
CCOC(=O)c1c(NC(=O)CCN2C(=O)c3ccccc3C2=O)sc(C(=O)OC(C)C)c1C | inconclusive: -3.3%
Cc1ccc(-n2nnnc2SCC(=O)c2c(N)n(C3CC3)c(=O)[nH]c2=O)cc1C | inactive: 3.9%
S=c1nc(-c2ccccc2)[nH]c2ccc(Br)cc12 | inconclusive: 1.6%
COC(=O)CSc1nc2ccccc2c(=O)n1Cc1ccccc1 | inconclusive: -0.5%

SMILES | inhibition
CCOc1ccc(NC(=O)CN(C)C(=O)c2cc(C)oc2C)cc1OCC | inconclusive: 7.2%
NC(=O)c1ccccc1NC(=O)NC1CCCCC1 | inconclusive: -0.2%
O=C(Cn1nnc(-c2ccccc2F)n1)N1CCCCC1 | inconclusive: 0.9%
N#Cc1c(NCCCO)nc(NCc2ccccc2)c2c1CCN(Cc1ccccc1)C2 | inactive: 2.5%
Cc1ccc(O)c(-c2cc(C(F)(F)F)[nH]n2)c1 | inconclusive: -6.6%
C=CCN(c1ccccc1)S(=O)(=O)c1cccc(C(=O)NCC(c2ccc(OC)cc2)N2CCCCC2)c1 (configuration not stated) | inconclusive: 1.3%
CCc1ccc(NC(=S)Nc2cc(OC)c(NC(=O)C(C)C)cc2OC)cc1 | inactive: -0.6%
Cc1nc2ccccc2c(=O)n1-c1ccc(NS(=O)(=O)c2ccccc2)cc1 | inactive: -0.4%
COc1ccc(NC(=O)C2CCN(c3cc(-c4ccccc4)nc4ncnn34)CC2)cc1OC | inconclusive: 0.1%
O=C(CSc1nc2ccccc2c(=O)n1CC1CCCO1)NCC1CCCO1 (configuration not stated) | inconclusive: 6.3%
CCOC(=O)c1cc(C#N)c(N2CCN(C(=O)c3ccccc3)CC2)nc1C(F)(F)F | inconclusive: -6.4%
CCOc1cc(CNCc2cccnc2)cc(Br)c1OCC(N)=O | inactive: -3.2%
CCCCN1CC(C)(C)Oc2cccc(F)c2S1(=O)=O | inactive: -0.1%
CC(C)CSc1ncc(-c2cccc(C(F)(F)F)c2)cn1 | inconclusive: 2%
Cc1ccc(C)c(-c2cc(C(=O)Nc3sc(C)c(C)c3C(N)=O)c3ccccc3n2)c1 | inconclusive: 1%
CCCCC#Cc1cncc(C(=O)N/N=C/c2ccccc2)c1 | inconclusive: 11.5%
CCOc1ccc(-c2nn(-c3ccccc3)cc2/C=C2\SC(=S)N(C3CCS(=O)(=O)C3)C2=O)cc1 (configuration not stated) | active: 35.8%
CCOC(=O)c1cccc(NC(=O)Cn2cnc3c2c(=O)n(C)c(=O)n3C)c1 | inconclusive: 0%
Cc1ccc(C(=O)NCC#N)cc1 | inactive: 0.2%
COc1cc2c(cc1OC)C(c1cc(C)ccc1C)CC(=O)N2 (configuration not stated) | inconclusive: 0.5%
Cc1cc(C)c(C)c(S(=O)(=O)NCC(=O)N2CCCC2)c1C | inactive: 0.6%
COc1cc(CNn2nnnc2N)cc(Br)c1OCC(=O)NC(C)(C)C | inactive: -0.7%
CC(C)NC(=S)NNC(=O)C12CC3CC(CC(C3)C1)C2 | inconclusive: -4.2%

Copied from the entries so far for reference:
SMILES | inhibition
CCOc1ccc(NC(=O)CN(C)C(=O)c2cc(C)oc2C)cc1OCC | inconclusive: 7.2%
NC(=O)c1ccccc1NC(=O)NC1CCCCC1 | inconclusive: -0.2%
O=C(Cn1nnc(-c2ccccc2F)n1)N1CCCCC1 | inconclusive: 0.9%
N#Cc1c(NCCCO)nc(NCc2ccccc2)c2c1CCN(Cc1ccccc1)C2 | inactive: 2.5%
